The other results are listed elsewhere or left out.
Legend:
Test in all cases: log2 fold change, soluble protein after heating vs DMSO (PISA); higher = thermal stabilisation; K562 cells, 10 uM, 30 min; active = over 0.2 and 3.5 SD of the protein, either way, in both replicates (recomputed)
saracatinib = compound: CN1CCN(CCOc2cc(OC3CCOCC3)c3c(Nc4c(Cl)ccc5c4OCO5)ncnc3c2)CC1 [saracatinib]
Method in brief: (§1)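 Thermal stability values are relative to control samples and come from duplicates. They are expressed as log2 fold changes. For measurement, K562 cells (2×10^6 cells/mL) received 10 μM compound for 30 min, and aliquots were heated for 3 min over 48°C-58°C, pooled, and extracted at 4°C in PBS with 0.5% NP-40. Soluble protein, the supernatant after 21,000xg for 90 min, was quantified by TMTpro 16plex LC-MS/MS with equalised channel sums.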

Protein sequences, listed by entry. Tags and fused reporters are not part of them. Lines headed by an entry give the natural chain unless they say otherwise; changes in a name come on top.
UniProt Q8TCG2: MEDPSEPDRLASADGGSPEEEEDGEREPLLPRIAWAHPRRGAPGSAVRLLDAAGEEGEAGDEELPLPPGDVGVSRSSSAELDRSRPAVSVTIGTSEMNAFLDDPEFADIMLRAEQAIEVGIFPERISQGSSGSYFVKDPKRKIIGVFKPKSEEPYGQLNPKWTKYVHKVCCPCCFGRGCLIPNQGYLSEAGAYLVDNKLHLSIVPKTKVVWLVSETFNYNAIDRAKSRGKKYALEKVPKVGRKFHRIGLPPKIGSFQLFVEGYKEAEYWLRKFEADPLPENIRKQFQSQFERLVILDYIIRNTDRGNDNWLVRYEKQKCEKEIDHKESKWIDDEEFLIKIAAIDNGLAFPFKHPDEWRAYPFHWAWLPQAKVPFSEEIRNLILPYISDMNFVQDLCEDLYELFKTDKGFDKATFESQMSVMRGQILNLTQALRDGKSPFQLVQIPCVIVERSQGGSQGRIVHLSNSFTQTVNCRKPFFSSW
UniProt O00628: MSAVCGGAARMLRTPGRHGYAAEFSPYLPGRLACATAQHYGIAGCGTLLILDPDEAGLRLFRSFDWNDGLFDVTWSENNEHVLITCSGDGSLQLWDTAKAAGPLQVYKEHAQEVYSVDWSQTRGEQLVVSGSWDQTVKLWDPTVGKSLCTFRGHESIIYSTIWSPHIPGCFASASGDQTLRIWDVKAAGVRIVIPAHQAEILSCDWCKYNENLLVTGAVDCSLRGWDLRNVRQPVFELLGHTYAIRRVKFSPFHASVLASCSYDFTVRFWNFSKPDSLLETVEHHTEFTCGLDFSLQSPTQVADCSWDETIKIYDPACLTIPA
UniProt P07205: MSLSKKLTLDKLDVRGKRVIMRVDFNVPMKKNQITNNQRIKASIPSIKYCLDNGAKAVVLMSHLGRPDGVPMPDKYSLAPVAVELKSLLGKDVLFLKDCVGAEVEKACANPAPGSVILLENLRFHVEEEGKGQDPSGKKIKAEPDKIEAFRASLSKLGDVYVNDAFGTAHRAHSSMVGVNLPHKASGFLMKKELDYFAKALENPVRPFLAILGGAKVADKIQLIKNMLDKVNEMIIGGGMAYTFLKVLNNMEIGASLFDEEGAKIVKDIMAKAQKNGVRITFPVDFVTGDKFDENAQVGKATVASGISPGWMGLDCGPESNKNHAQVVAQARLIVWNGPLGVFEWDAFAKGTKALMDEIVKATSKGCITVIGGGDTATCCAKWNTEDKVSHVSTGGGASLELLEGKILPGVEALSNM
UniProt Q7Z412: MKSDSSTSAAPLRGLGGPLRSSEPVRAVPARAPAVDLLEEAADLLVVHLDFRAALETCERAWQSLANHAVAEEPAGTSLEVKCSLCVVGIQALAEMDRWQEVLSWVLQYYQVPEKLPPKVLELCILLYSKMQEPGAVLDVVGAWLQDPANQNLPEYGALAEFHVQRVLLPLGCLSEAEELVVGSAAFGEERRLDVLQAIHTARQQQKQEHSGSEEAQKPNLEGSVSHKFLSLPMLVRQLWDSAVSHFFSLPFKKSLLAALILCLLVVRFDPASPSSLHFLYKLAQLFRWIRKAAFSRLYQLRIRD
UniProt Q7RTV0, whole entry, looked up: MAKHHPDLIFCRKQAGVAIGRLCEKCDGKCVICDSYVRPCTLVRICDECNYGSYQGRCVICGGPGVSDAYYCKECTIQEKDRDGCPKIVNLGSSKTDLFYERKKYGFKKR
UniProt Q5JRX3: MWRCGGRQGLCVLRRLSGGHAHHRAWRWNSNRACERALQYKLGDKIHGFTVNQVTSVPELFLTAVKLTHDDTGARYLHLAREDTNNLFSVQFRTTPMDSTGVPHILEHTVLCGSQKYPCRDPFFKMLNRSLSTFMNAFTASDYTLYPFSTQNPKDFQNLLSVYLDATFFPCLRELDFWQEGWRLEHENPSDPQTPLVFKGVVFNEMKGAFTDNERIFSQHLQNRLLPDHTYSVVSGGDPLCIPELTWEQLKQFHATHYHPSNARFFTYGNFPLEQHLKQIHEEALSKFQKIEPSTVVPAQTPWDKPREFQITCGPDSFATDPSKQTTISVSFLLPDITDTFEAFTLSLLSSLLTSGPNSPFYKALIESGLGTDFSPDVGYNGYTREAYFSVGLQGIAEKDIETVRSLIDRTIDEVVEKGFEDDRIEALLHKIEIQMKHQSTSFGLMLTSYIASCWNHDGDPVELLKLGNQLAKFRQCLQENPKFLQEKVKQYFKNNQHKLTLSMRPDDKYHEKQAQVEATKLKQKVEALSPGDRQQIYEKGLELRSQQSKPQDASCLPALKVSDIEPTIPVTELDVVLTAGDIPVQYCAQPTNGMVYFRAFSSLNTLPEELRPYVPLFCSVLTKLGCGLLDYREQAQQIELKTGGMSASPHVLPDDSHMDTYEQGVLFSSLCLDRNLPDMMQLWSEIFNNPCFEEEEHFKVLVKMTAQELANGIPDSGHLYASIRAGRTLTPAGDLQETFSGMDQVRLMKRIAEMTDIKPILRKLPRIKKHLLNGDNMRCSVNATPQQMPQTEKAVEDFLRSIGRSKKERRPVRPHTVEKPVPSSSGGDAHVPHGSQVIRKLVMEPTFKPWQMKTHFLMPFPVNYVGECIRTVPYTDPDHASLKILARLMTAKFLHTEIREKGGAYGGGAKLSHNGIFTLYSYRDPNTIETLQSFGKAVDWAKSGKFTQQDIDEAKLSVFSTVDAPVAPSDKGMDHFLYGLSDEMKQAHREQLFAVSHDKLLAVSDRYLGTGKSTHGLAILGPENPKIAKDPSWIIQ
UniProt Q8TCD6: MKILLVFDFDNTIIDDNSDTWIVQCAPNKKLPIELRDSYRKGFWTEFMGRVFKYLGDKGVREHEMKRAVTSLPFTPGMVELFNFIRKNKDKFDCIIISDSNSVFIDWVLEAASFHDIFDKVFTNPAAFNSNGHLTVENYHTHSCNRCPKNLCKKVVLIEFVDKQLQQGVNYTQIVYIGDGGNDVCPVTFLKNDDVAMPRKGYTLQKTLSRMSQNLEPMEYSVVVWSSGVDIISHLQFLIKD
UniProt Q8N4L2: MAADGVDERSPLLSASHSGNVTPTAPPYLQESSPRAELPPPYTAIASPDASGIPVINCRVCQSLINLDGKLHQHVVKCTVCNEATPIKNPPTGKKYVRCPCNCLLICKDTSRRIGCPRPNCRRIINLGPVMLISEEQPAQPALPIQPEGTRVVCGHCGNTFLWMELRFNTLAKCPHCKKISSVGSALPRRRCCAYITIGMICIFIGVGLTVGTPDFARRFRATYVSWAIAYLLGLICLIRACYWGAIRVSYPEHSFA
UniProt Q86UU1: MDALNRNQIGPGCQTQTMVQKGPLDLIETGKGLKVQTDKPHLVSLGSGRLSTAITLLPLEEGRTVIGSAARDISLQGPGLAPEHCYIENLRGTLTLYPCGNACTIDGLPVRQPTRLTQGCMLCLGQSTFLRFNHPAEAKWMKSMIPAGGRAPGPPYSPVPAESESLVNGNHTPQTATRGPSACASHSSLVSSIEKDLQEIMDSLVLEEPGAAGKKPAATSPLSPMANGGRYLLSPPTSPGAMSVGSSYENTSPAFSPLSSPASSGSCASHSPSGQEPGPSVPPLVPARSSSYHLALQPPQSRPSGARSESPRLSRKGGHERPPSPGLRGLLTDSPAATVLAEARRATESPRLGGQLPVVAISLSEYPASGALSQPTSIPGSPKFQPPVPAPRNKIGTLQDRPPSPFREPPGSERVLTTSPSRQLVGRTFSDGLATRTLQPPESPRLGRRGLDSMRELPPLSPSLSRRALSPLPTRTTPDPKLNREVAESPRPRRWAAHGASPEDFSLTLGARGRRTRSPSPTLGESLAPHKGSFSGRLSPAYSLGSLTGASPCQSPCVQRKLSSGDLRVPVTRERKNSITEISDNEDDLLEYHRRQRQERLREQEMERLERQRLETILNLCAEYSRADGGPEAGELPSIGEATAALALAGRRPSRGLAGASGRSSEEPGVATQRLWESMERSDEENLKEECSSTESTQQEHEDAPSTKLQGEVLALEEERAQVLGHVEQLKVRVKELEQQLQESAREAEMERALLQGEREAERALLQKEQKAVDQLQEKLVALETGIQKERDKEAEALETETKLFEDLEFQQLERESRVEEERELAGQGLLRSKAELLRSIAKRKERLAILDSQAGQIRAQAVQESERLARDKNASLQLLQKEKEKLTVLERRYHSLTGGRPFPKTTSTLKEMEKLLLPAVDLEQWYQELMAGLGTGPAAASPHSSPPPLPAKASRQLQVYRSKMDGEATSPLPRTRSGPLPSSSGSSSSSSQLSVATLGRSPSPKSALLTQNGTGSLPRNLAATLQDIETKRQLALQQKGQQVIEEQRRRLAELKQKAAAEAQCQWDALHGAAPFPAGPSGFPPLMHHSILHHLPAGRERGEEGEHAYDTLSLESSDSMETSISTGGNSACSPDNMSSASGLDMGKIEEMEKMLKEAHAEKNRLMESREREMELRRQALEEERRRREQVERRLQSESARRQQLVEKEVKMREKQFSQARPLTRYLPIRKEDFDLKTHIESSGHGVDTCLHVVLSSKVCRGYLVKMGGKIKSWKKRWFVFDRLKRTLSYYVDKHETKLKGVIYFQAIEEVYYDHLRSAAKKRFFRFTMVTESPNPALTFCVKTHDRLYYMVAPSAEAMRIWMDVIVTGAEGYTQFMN
UniProt Q96CS7: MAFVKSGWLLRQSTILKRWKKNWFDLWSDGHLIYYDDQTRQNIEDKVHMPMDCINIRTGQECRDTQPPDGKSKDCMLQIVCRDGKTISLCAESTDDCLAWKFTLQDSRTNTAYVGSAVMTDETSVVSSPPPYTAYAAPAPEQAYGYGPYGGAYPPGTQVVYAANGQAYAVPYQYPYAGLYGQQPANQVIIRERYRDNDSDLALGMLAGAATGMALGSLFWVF
UniProt P48736: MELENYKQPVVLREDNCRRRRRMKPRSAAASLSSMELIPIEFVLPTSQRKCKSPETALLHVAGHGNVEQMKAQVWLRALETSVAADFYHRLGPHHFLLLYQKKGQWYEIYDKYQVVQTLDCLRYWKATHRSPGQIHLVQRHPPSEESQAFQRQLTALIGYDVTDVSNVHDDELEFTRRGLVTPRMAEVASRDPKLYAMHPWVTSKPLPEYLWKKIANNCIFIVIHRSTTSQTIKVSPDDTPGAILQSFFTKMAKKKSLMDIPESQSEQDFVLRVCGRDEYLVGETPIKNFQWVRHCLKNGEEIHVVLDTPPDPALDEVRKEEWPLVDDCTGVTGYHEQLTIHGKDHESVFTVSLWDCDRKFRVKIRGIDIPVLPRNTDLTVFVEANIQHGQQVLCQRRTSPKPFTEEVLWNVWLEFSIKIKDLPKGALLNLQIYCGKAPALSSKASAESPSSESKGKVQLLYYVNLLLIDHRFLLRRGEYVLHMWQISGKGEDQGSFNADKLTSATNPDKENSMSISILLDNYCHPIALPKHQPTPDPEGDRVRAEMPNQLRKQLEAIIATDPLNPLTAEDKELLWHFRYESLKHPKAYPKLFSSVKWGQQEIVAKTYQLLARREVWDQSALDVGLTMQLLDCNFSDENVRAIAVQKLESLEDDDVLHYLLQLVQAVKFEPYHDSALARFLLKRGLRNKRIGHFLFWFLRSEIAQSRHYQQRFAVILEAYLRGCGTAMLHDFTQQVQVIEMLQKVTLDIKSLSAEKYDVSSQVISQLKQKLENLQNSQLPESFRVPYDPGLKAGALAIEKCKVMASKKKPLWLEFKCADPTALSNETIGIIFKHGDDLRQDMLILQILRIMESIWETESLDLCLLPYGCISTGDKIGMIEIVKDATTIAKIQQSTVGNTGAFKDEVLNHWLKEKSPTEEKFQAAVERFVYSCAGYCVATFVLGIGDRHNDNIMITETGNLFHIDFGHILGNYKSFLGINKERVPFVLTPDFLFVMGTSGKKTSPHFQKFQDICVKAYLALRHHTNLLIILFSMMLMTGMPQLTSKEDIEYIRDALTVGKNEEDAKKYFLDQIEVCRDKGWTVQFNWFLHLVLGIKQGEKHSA
UniProt P16118: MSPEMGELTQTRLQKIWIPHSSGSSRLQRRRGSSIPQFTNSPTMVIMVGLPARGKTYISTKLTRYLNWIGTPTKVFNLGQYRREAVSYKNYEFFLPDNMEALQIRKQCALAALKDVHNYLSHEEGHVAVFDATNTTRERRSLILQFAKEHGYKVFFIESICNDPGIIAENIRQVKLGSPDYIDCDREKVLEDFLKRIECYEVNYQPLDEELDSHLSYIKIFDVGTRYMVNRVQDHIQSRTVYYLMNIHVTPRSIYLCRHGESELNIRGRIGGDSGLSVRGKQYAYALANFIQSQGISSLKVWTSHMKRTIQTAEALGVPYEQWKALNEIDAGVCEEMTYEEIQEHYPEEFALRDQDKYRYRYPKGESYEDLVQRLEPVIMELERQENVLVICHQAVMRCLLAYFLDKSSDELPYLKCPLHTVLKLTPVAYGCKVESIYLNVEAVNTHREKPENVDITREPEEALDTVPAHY

sotrastaurin = compound: CN1CCN(c2nc(C3=C(c4c[nH]c5ccccc45)C(=O)NC3=O)c3ccccc3n2)CC1 [sotrastaurin]
Method in brief: as §1

Tubastatin A = compound: CN1CCc2c(c3ccccc3n2Cc2ccc(C(=O)NO)cc2)C1 [Tubastatin A]
Method in brief: as §1

[1] = compound: CNC(=O)C1=CC=CC=C1NC2=NC(=NC=C2Cl)NC3=C(C=C(C=C3)N4CCOCC4)OC
Method in brief: as §1

defactinib = compound: CNC(=O)c1ccc(Nc2ncc(C(F)(F)F)c(NCc3nccnc3N(C)S(C)(=O)=O)n2)cc1 [defactinib]
Method in brief: as §1

rucaparib = compound: CNCc1ccc(-c2[nH]c3cc(F)cc4c3c2CCNC4=O)cc1 [rucaparib]
Method in brief: as §1

[2] = compound: CNc1nc(-c2ccc3c(N)n[nH]c3c2)cc(N2C[C@@H](C(=O)NC3CCCCC3)CC[C@H]2C)n1
Method in brief: as §1

encorafenib = compound: COC(=O)N[C@@H](C)CNc1nccc(-c2cn(C(C)C)nc2-c2cc(Cl)cc(NS(C)(=O)=O)c2F)n1 [encorafenib]
Method in brief: as §1

[3] = compound: COC(=O)[C@H](CCSC)NC(=O)C1=C(C=C(C=C1)NC[C@H](CS)N)C2=CC=CC=C2
Method in brief: as §1

[4] = compound: COC1=CC=C(C=C1)CN2C=CC3=C2C=C(C=C3)C(=O)NO
Method in brief: as §1

filanesib = compound: CON(C)C(=O)N1N=C(c2cc(F)ccc2F)S[C@@]1(CCCN)c1ccccc1 [filanesib]
Method in brief: as §1

zotarolimus = compound: CO[C@H]1C[C@@H]2CC[C@@H](C)[C@@](O)(O2)C(=O)C(=O)N2CCCC[C@H]2C(=O)O[C@H]([C@H](C)C[C@@H]2CC[C@H](n3cnnn3)[C@H](OC)C2)CC(=O)[C@H](C)/C=C(\C)[C@@H](O)[C@@H](OC)C(=O)[C@H](C)C[C@H](C)/C=C/C=C/C=C/1C [zotarolimus]
Method in brief: as §1

idasanutlin = compound: COc1cc(C(=O)O)ccc1NC(=O)[C@@H]1N[C@@H](CC(C)(C)C)[C@](C#N)(c2ccc(Cl)cc2F)[C@H]1c1cccc(Cl)c1F [idasanutlin]
Method in brief: as §1

alisertib = compound: COc1cc(Nc2ncc3c(n2)-c2ccc(Cl)cc2C(c2c(F)cccc2OC)=NC3)ccc1C(=O)O [alisertib]
Method in brief: as §1

gefitinib = compound: COc1cc2ncnc(Nc3ccc(F)c(Cl)c3)c2cc1OCCCN1CCOCC1 [gefitinib]
Method in brief: as §1

[5] = compound: COc1cccc2cc(-c3nc([C@H]4CC[C@H](C(=O)O)CC4)n4ncnc(N)c34)[nH]c12
Method in brief: as §1

pictilisib = compound: CS(=O)(=O)N1CCN(Cc2cc3nc(-c4cccc5[nH]ncc45)nc(N4CCOCC4)c3s2)CC1 [pictilisib]
Method in brief: as §1

alvocidib = compound: CN1CC[C@H](c2c(O)cc(O)c3c(=O)cc(-c4ccccc4Cl)oc23)[C@H](O)C1 [alvocidib]
Method in brief: as §1

[6] = compound: COc1cc2nc(-c3cc(F)ccc3O)nc(N[C@@H]3CNC[C@H]3C(C)(C)O)c2cc1OC
Method in brief: as §1

lapatinib = compound: CS(=O)(=O)CCNCc1ccc(-c2ccc3ncnc(Nc4ccc(OCc5cccc(F)c5)c(Cl)c4)c3c2)o1 [lapatinib]
Method in brief: as §1

Measured: log2 fold change

PI4K2B (UniProt Q8TCG2)
inactive: saracatinib -0.067 | sotrastaurin 0.04 | Tubastatin A 0.028 | [1] -0.016 | defactinib 0.003 | rucaparib 0.097 | [2] -0.096 | encorafenib -0.148 | [3] -0.099 | [4] -0.035 | filanesib -0.059 | zotarolimus -0.014 | idasanutlin -0.034 | alisertib -0.059 | gefitinib 0.4 | [5] -0.054 | pictilisib 0.051

PHLPP1 (UniProt O60346)
inactive: saracatinib -0.268 | alvocidib 0.023 | Tubastatin A 0.035 | [2] 0.174 | zotarolimus -0.059

PEX7 (UniProt O00628)
inactive: saracatinib 0.045 | sotrastaurin 0.06 | Tubastatin A 0.061 | [1] 0.005 | defactinib -0.005 | rucaparib -0.047 | [2] 0.03 | encorafenib -0.023 | [3] -0.039 | [4] 0.013 | filanesib -0.063 | zotarolimus 0.058 | idasanutlin -0.002 | alisertib -0.01 | [6] -0.09 | gefitinib -0.003 | [5] 0.072 | lapatinib -0.032 | pictilisib 0.055

PGK2 (UniProt P07205)
inactive: saracatinib -0.196 | sotrastaurin 0.154 | Tubastatin A -0.041 | defactinib 0.037 | rucaparib -0.248 | [2] -0.131 | encorafenib -0.056 | [3] 0.038 | [4] 0.016 | filanesib -0.003 | zotarolimus -0.029 | idasanutlin 0.001 | alisertib 0.08 | [6] 0.14 | gefitinib 0.068 | [5] 0.001 | lapatinib -0.093 | pictilisib 0.041

Copied from the results shown (2 entries):
PHLPP1 (UniProt O60346)
inactive: saracatinib -0.268 | alvocidib 0.023 | Tubastatin A 0.035 | [2] 0.174 | zotarolimus -0.059

PEX7 (UniProt O00628)
inactive: saracatinib 0.045 | sotrastaurin 0.06 | Tubastatin A 0.061 | [1] 0.005 | defactinib -0.005 | rucaparib -0.047 | [2] 0.03 | encorafenib -0.023 | [3] -0.039 | [4] 0.013 | filanesib -0.063 | zotarolimus 0.058 | idasanutlin -0.002 | alisertib -0.01 | [6] -0.09 | gefitinib -0.003 | [5] 0.072 | lapatinib -0.032 | pictilisib 0.055

Next part:

PEX26 (UniProt Q7Z412)
inactive: saracatinib 0.059 | alvocidib -0.058 | Tubastatin A 0.016 | [1] -0.046 | defactinib 0.03 | [2] -0.037 | [3] 0.028 | [4] -0.019 | zotarolimus 0.016 | idasanutlin 0.099 | alisertib -0.196 | [6] 0.087 | gefitinib 0.148 | [5] -0.006 | lapatinib -0.161 | pictilisib -0.033

PHF5A (UniProt Q7RTV0)
inactive: saracatinib 0.069 | sotrastaurin 0.047 | Tubastatin A -0.027 | [1] 0.05 | defactinib 0.141 | rucaparib 0.04 | [2] -0.086 | encorafenib -0.017 | [3] 0.023 | [4] 0.014 | filanesib 0.087 | zotarolimus -0.024 | idasanutlin 0.056 | alisertib -0.033 | [6] 0.067 | gefitinib 0.003 | [5] 0.026 | lapatinib -0.051 | pictilisib 0.071

PITRM1 isoform 2 (UniProt Q5JRX3)
active: filanesib -0.229
inactive: saracatinib -0.016 | sotrastaurin -0.045 | Tubastatin A 0.009 | [1] -0.027 | defactinib -0.034 | rucaparib -0.051 | [2] 0.09 | encorafenib -0.032 | [3] -0.005 | [4] -0.097 | zotarolimus 0.124 | idasanutlin -0.047 | alisertib -0.009 | [6] -0.026 | gefitinib 0.137 | [5] 0.035 | lapatinib -0.04 | pictilisib -0.032

PHOSPHO2 (UniProt Q8TCD6)
inactive: saracatinib -0.217 | alvocidib -0.131 | Tubastatin A 0.047 | [1] 0.052 | defactinib 0.013 | [2] -0.112 | [3] 0.112 | [4] -0.028 | zotarolimus 0.089 | idasanutlin -0.059 | alisertib -0.123 | [5] -0.084

PIP4P2 (UniProt Q8N4L2)
inactive: saracatinib 0.056 | sotrastaurin -0.003 | Tubastatin A 0.072 | [1] -0.007 | defactinib 0.004 | rucaparib -0.003 | [2] -0.106 | encorafenib -0.04 | [3] 0.093 | [4] 0.053 | zotarolimus 0.027 | idasanutlin 0.14 | alisertib 0.022 | [6] 0.007 | gefitinib 0.009 | [5] -0.016 | lapatinib 0.03 | pictilisib 0.061
active: filanesib -0.383

PHLDB1 isoform 2 (UniProt Q86UU1)
inactive: saracatinib -0.02 | Tubastatin A -0.023 | [1] -0.164 | defactinib -0.035 | rucaparib 0.011 | [2] 0.066 | encorafenib 0.089 | [3] -0.001 | [4] 0 | zotarolimus 0.014 | idasanutlin -0.033 | alisertib -0.098 | [6] -0.069 | gefitinib 0.149 | [5] -0.032 | lapatinib -0.039
active: pictilisib -0.498

PLEKHB2 isoform 2 (UniProt Q96CS7)
inactive: saracatinib -0.217 | [2] 0.035 | [6] 0.087 | lapatinib 0.104

PKLR (UniProt F8W6W2)
inactive: defactinib 0.06 | [3] 0.268 | idasanutlin -0.025 | [6] 0.286 | lapatinib -0.883

PIK3CG (UniProt P48736)
inactive: sotrastaurin -0.518 | [1] 0.015 | rucaparib 0.136 | encorafenib 0.159 | [4] 0.162 | filanesib -0.095 | idasanutlin 0.106

PFKFB1 (UniProt P16118)
inactive: sotrastaurin -0.165 | filanesib -0.031 | alisertib -0.076 | [6] -0.11 | gefitinib -0.055 | [5] 0.039 | lapatinib 0.055 | pictilisib -0.235

Source: the supplement of paper PMC10849652
